Compounds and concentrations:
tamatinib, 2 µM: COc1cc(Nc2ncc(F)c(Nc3ccc4c(n3)NC(=O)C(C)(C)O4)n2)cc(OC)c1OC
cediranib, 2 µM: COc1cc2c(Oc3ccc4[nH]c(C)cc4c3F)ncnc2cc1OCCCN1CCCC1
PD173074, 0.5 µM: CCN(CC)CCCCNc1ncc2cc(-c3cc(OC)cc(OC)c3)c(NC(=O)NC(C)(C)C)nc2n1
LFM-A13, 10 µM: C/C(O)=C(\C#N)C(=O)Nc1cc(Br)ccc1Br
fingolimod, 10 µM: CCCCCCCCc1ccc(CCC(N)(CO)CO)cc1
pazopanib, 2 µM: Cc1ccc(Nc2nccc(N(C)c3ccc4c(C)n(C)nc4c3)n2)cc1S(N)(=O)=O
T0901317, 7 µM: O=S(=O)(c1ccccc1)N(CC(F)(F)F)c1ccc(C(O)(C(F)(F)F)C(F)(F)F)cc1
GW9662, 10 µM: O=C(Nc1ccccc1)c1cc([N+](=O)[O-])ccc1Cl
ABT-263, 2 µM: CC1(C)CCC(c2ccc(Cl)cc2)=C(CN2CCN(c3ccc(C(=O)NS(=O)(=O)c4ccc(N[C@H](CCN5CCOCC5)CSc5ccccc5)c(S(=O)(=O)C(F)(F)F)c4)cc3)CC2)C1
KU-55933, 5 µM: O=c1cc(-c2cccc3c2Sc2ccccc2S3)oc(N2CCOCC2)c1
GW0742, 10 µM: Cc1cc(SCc2sc(-c3ccc(C(F)(F)F)c(F)c3)nc2C)ccc1OCC(=O)O
GSK0660, 5 µM: COC(=O)c1sccc1S(=O)(=O)Nc1ccc(Nc2ccccc2)cc1OC
MK-1775, 0.1 µM: C=CCn1c(=O)c2cnc(Nc3ccc(N4CCN(C)CC4)cc3)nc2n1-c1cccc(C(C)(C)O)n1
vismodegib, 5 µM: CS(=O)(=O)c1ccc(C(=O)Nc2ccc(Cl)c(-c3ccccn3)c2)c(Cl)c1
everolimus, 0.1 µM: CO[C@H]1C[C@@H]2CC[C@@H](C)[C@@](O)(O2)C(=O)C(=O)N2CCCC[C@H]2C(=O)O[C@H]([C@H](C)C[C@@H]2CC[C@@H](OCCO)[C@H](OC)C2)CC(=O)[C@H](C)/C=C(\C)[C@@H](O)[C@@H](OC)C(=O)[C@H](C)C[C@H](C)/C=C/C=C/C=C/1C
L-779450, 1 µM: Oc1cc(-c2nc(-c3ccccc3)[nH]c2-c2ccncc2)ccc1Cl
palbociclib, 0.2 µM: CC(=O)c1c(C)c2cnc(Nc3ccc(N4CCNCC4)cn3)nc2n(C2CCCC2)c1=O
erlotinib, 4 µM: C#Cc1cccc(Nc2ncnc3cc(OCCOC)c(OCCOC)cc23)c1
OSI-906, 2 µM: C[C@]1(O)C[C@@H](c2nc(-c3ccc4ccc(-c5ccccc5)nc4c3)c3c(N)nccn32)C1
STA-4783, 0.03 µM: CN(NC(=O)CC(=O)NN(C)C(=S)c1ccccc1)C(=S)c1ccccc1

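The test systems are human melanoma cell lines, treated with two drugs together for 72 h and then stained and imaged. Each value is the cleaved-PARP-positive fraction of nuclei relative to DMSO-treated wells, in %, so that 100 equals the control and higher values mean more apoptosis. Every drug was used at one fixed concentration, the higher of two screened. The file gives one value for each pair and line, without errors, so small differences may be noise. The marker varies much from line to line, for technical or biological reasons.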
This is part of the screen, not chosen by result.

{"pair": "everolimus and OSI-906", "SK-MEL-28": 41.0, "RPMI-7951": 124, "COLO 800": 229, "COLO 829": 172, "UACC-257": 50.7, "WM1716": 63.8}
{"pair": "vismodegib and KU-55933", "SK-MEL-28": 117, "RPMI-7951": 35.2, "COLO 800": 183, "COLO 829": 116, "UACC-257": 107, "WM1716": 165}
{"pair": "pazopanib and T0901317", "SK-MEL-28": 174, "RPMI-7951": 46.5, "COLO 800": 111, "COLO 829": 24.5, "UACC-257": 36.4, "WM1716": 208}
{"pair": "LFM-A13 and ABT-263", "SK-MEL-28": 271, "RPMI-7951": 202, "COLO 800": 240, "COLO 829": 176, "UACC-257": 1820, "WM1716": 2360}
{"pair": "L-779450 and erlotinib", "SK-MEL-28": 72.0, "RPMI-7951": 99.3, "COLO 800": 55.4, "COLO 829": 338, "UACC-257": 44.7, "WM1716": 340}
{"pair": "LFM-A13 and GW0742", "SK-MEL-28": 213, "RPMI-7951": 56.4, "COLO 800": 86.1, "COLO 829": 106, "UACC-257": 56.5, "WM1716": 100}
{"pair": "PD173074 and L-779450", "SK-MEL-28": 337, "RPMI-7951": 59.8, "COLO 800": 223, "COLO 829": 176, "UACC-257": 28.9, "WM1716": 50.5}
{"pair": "cediranib and LFM-A13", "SK-MEL-28": 90.9, "RPMI-7951": 38.8, "COLO 800": 127, "COLO 829": 47.6, "UACC-257": 38.5, "WM1716": 111}
{"pair": "T0901317 and palbociclib", "SK-MEL-28": 117, "RPMI-7951": 442, "COLO 800": 250, "COLO 829": 70.0, "UACC-257": 35.7, "WM1716": 222}
{"pair": "palbociclib and fingolimod", "SK-MEL-28": 4890, "RPMI-7951": 1880, "COLO 800": 282, "COLO 829": 214, "UACC-257": 65.0, "WM1716": 203}
{"pair": "PD173074 and T0901317", "SK-MEL-28": 39.5, "RPMI-7951": 285, "COLO 800": 99.8, "COLO 829": 69.9, "UACC-257": 44.4, "WM1716": 81.8}
{"pair": "OSI-906 and palbociclib", "SK-MEL-28": 117, "RPMI-7951": 153, "COLO 800": 173, "COLO 829": 137, "UACC-257": 42.0, "WM1716": 47.6}
{"pair": "STA-4783 and GSK0660", "SK-MEL-28": 483, "RPMI-7951": 79.9, "COLO 800": 1560, "COLO 829": 140, "UACC-257": 54.5, "WM1716": 63.0}
{"pair": "MK-1775 and palbociclib", "SK-MEL-28": 93.3, "RPMI-7951": 67.0, "COLO 800": 120, "COLO 829": 62.2, "UACC-257": 40.3, "WM1716": 110}
{"pair": "STA-4783 and OSI-906", "SK-MEL-28": 189, "RPMI-7951": 79.8, "COLO 800": 485, "COLO 829": 388, "UACC-257": 236, "WM1716": 93.6}
{"pair": "GW9662 and MK-1775", "SK-MEL-28": 130, "RPMI-7951": 258, "COLO 800": 104, "COLO 829": 292, "UACC-257": 30.2, "WM1716": 144}
{"pair": "GW0742 and cediranib", "SK-MEL-28": 96.8, "RPMI-7951": 56.0, "COLO 800": 209, "COLO 829": 62.5, "UACC-257": 84.6, "WM1716": 54.0}
{"pair": "vismodegib and erlotinib", "SK-MEL-28": 39.8, "RPMI-7951": 200, "COLO 800": 130, "COLO 829": 325, "UACC-257": 86.0, "WM1716": 97.1}
{"pair": "GW0742 and pazopanib", "SK-MEL-28": 104, "RPMI-7951": 51.2, "COLO 800": 108, "COLO 829": 48.0, "UACC-257": 72.5, "WM1716": 137}
{"pair": "fingolimod and L-779450", "SK-MEL-28": 3490, "RPMI-7951": 7750, "COLO 800": 1130, "COLO 829": 392, "UACC-257": 85.2, "WM1716": 224}
{"pair": "KU-55933 and ABT-263", "SK-MEL-28": 319, "RPMI-7951": 535, "COLO 800": 116, "COLO 829": 96.3, "UACC-257": 936, "WM1716": 2030}
{"pair": "erlotinib and tamatinib", "SK-MEL-28": 62.4, "RPMI-7951": 190, "COLO 800": 149, "COLO 829": 204, "UACC-257": 68.9, "WM1716": 64.4}
{"pair": "GSK0660 and KU-55933", "SK-MEL-28": 63.2, "RPMI-7951": 48.6, "COLO 800": 190, "COLO 829": 118, "UACC-257": 43.2, "WM1716": 136}
{"pair": "ABT-263 and erlotinib", "SK-MEL-28": 279, "RPMI-7951": 124, "COLO 800": 274, "COLO 829": 179, "UACC-257": 1090, "WM1716": 1060}
{"pair": "GW0742 and tamatinib", "SK-MEL-28": 282, "RPMI-7951": 93.1, "COLO 800": 349, "COLO 829": 133, "UACC-257": 31.3, "WM1716": 45.0}

From a melanoma drug combination screen (doi:10.1371/journal.pone.0140310); values rounded.